Results are given in words; binding and its absence hold for the method and conditions named. In cells and extracts the contact can be indirect. Some binding calls cover weakened binding; strength is not graded here.

The chains behind the UniProt entries cited, without tags or fusion partners. Residues count along the entry.
UniProt P50552, residues 1-113: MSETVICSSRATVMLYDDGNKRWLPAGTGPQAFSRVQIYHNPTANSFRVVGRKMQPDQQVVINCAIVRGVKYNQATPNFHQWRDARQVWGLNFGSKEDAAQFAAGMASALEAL
UniProt Q8CBW3: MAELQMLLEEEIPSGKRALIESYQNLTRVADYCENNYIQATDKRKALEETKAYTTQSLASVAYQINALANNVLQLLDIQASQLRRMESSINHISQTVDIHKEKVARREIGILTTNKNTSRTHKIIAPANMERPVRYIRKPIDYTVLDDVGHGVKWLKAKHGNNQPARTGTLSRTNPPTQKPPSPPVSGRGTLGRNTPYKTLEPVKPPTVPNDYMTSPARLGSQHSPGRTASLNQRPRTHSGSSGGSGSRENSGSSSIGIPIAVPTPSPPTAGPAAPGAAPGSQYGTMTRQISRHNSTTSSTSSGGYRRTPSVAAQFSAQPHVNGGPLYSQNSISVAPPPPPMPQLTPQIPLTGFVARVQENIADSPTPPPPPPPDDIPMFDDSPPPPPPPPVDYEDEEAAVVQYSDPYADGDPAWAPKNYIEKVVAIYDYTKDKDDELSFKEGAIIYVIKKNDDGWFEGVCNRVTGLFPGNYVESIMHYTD
UniProt Q8BH43: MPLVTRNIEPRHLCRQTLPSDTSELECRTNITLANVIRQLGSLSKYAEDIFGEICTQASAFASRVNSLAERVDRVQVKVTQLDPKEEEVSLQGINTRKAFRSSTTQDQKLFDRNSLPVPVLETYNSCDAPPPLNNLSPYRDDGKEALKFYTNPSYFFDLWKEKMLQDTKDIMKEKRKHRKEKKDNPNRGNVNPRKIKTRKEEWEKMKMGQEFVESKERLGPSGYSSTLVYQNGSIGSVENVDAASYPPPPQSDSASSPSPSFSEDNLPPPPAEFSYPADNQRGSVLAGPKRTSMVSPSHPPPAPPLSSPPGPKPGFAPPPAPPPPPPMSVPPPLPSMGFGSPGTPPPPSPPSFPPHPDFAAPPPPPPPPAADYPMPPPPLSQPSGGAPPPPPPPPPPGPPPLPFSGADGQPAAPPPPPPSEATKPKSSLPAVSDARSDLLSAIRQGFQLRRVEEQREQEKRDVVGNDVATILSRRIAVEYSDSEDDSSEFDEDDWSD
UniProt O08808: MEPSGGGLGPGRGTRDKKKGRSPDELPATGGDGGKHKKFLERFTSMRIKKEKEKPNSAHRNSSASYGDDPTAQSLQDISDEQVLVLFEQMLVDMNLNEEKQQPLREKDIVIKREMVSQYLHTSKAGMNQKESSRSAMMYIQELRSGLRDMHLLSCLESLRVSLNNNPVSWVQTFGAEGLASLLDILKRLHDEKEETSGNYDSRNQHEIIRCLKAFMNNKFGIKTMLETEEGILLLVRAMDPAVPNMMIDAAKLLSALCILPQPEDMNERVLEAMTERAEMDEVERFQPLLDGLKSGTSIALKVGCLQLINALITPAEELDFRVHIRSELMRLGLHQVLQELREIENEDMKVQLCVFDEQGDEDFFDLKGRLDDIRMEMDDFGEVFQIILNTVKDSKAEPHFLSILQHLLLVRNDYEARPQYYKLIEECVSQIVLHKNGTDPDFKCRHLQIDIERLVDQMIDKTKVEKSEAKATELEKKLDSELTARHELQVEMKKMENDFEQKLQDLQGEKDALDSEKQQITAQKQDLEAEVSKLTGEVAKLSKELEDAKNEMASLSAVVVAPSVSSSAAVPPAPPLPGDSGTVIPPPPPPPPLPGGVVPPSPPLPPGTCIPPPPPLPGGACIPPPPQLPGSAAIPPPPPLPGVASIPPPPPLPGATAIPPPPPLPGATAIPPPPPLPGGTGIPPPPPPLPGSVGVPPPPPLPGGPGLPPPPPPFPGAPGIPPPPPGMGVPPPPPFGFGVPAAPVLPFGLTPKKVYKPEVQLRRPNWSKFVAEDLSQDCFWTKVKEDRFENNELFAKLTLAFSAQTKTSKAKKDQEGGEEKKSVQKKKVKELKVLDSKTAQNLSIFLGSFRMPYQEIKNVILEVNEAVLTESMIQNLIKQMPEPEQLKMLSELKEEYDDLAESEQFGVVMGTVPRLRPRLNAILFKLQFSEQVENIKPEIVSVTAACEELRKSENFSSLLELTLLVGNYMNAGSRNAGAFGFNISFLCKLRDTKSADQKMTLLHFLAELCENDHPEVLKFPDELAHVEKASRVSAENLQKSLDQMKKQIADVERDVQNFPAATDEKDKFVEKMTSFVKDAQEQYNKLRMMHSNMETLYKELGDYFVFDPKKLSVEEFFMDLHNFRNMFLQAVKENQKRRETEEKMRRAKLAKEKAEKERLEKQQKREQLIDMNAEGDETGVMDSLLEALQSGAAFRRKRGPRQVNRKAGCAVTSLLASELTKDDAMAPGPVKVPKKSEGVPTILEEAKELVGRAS

This assay deals with GST-tagged VASP-EVH1 domain (UniProt P50552). Put plainly: pull-down; GST-VASP-EVH1 (GST as control) on GST-bind resin beads incubated with lysates of immature or mature DCs in RIPA buffer, with or without the EVH1-specific inhibitor ProM; eluates by SDS-PAGE and immunoblotting; only the target purified. (In general: In western blotting, separated proteins are transferred to a membrane and probed.)
Consider Abi1 (from UniProt Q8CBW3 1-481), for which the binding entry is “binds”.

Regarding “Wave2/Scar2/Wasf2 (from UniProt Q8BH43 1-497)”, the binding result was “binds”.

Turning to “mDia1/Diaph1 (from UniProt O08808 1-1255)”, the binding entry is “binds”.

The values are drawn from publication PMC9581539.
